Experimental data: the supplement of paper PMC10849652
The other results are listed elsewhere or left out.

By UniProt entry, the sequences of proteins in these tests, tags left out. Where a name states a change or a piece, a line headed by the entry shows the natural chain unless it says otherwise.
UniProt Q13069: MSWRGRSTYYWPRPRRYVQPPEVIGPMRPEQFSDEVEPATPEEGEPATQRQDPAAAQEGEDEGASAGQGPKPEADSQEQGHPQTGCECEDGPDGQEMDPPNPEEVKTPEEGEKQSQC
UniProt Q9NY12: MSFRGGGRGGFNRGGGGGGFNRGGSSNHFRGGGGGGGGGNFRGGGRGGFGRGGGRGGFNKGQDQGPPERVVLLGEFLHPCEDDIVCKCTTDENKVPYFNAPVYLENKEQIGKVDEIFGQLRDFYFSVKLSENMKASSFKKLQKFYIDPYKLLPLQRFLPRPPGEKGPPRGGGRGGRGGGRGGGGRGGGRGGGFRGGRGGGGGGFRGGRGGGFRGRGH
UniProt P02792: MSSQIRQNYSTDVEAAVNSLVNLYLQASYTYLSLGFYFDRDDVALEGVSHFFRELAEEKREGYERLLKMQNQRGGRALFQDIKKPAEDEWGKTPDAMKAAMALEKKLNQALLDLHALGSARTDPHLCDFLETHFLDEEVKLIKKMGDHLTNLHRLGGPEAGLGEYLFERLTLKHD
UniProt P41250: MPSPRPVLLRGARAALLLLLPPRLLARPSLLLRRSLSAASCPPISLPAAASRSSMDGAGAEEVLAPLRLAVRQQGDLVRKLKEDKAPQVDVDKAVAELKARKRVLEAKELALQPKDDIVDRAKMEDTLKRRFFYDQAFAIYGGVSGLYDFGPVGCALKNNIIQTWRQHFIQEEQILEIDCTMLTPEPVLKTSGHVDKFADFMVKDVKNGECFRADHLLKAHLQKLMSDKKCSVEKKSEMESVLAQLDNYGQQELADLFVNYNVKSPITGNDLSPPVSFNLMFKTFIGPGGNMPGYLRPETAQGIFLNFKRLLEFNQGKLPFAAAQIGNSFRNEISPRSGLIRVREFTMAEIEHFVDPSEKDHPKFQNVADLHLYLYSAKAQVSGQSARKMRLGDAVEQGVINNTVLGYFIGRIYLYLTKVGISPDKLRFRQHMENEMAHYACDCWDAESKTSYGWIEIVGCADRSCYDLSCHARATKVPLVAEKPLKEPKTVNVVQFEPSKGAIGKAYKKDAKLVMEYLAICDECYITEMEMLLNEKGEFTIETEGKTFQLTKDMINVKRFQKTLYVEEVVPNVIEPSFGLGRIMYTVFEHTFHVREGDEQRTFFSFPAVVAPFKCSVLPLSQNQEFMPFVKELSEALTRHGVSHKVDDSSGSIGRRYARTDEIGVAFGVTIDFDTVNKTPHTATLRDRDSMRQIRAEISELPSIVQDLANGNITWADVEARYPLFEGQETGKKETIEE
UniProt Q13283, whole entry, looked up: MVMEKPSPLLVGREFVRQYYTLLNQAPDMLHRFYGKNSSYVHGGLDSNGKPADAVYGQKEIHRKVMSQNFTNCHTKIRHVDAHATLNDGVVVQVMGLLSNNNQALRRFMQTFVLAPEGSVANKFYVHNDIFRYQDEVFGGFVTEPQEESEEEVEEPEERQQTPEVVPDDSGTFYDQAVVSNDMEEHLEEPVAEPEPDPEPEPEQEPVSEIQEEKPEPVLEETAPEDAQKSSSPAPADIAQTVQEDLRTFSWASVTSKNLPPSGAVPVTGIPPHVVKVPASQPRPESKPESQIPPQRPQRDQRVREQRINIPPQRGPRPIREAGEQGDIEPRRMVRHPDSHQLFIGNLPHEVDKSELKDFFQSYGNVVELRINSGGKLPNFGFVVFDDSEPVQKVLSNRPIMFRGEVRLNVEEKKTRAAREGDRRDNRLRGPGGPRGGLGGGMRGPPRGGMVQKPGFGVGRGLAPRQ
UniProt Q9H3K2: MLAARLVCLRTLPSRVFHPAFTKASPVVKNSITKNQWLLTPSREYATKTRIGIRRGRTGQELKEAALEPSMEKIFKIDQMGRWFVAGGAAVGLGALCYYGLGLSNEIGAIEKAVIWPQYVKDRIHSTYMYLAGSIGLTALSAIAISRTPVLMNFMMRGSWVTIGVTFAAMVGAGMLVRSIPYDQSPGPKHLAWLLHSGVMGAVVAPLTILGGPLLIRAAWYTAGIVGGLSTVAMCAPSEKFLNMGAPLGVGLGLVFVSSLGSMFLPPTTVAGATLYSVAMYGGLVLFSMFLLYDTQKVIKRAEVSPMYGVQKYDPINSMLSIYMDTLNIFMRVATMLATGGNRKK
UniProt O94915: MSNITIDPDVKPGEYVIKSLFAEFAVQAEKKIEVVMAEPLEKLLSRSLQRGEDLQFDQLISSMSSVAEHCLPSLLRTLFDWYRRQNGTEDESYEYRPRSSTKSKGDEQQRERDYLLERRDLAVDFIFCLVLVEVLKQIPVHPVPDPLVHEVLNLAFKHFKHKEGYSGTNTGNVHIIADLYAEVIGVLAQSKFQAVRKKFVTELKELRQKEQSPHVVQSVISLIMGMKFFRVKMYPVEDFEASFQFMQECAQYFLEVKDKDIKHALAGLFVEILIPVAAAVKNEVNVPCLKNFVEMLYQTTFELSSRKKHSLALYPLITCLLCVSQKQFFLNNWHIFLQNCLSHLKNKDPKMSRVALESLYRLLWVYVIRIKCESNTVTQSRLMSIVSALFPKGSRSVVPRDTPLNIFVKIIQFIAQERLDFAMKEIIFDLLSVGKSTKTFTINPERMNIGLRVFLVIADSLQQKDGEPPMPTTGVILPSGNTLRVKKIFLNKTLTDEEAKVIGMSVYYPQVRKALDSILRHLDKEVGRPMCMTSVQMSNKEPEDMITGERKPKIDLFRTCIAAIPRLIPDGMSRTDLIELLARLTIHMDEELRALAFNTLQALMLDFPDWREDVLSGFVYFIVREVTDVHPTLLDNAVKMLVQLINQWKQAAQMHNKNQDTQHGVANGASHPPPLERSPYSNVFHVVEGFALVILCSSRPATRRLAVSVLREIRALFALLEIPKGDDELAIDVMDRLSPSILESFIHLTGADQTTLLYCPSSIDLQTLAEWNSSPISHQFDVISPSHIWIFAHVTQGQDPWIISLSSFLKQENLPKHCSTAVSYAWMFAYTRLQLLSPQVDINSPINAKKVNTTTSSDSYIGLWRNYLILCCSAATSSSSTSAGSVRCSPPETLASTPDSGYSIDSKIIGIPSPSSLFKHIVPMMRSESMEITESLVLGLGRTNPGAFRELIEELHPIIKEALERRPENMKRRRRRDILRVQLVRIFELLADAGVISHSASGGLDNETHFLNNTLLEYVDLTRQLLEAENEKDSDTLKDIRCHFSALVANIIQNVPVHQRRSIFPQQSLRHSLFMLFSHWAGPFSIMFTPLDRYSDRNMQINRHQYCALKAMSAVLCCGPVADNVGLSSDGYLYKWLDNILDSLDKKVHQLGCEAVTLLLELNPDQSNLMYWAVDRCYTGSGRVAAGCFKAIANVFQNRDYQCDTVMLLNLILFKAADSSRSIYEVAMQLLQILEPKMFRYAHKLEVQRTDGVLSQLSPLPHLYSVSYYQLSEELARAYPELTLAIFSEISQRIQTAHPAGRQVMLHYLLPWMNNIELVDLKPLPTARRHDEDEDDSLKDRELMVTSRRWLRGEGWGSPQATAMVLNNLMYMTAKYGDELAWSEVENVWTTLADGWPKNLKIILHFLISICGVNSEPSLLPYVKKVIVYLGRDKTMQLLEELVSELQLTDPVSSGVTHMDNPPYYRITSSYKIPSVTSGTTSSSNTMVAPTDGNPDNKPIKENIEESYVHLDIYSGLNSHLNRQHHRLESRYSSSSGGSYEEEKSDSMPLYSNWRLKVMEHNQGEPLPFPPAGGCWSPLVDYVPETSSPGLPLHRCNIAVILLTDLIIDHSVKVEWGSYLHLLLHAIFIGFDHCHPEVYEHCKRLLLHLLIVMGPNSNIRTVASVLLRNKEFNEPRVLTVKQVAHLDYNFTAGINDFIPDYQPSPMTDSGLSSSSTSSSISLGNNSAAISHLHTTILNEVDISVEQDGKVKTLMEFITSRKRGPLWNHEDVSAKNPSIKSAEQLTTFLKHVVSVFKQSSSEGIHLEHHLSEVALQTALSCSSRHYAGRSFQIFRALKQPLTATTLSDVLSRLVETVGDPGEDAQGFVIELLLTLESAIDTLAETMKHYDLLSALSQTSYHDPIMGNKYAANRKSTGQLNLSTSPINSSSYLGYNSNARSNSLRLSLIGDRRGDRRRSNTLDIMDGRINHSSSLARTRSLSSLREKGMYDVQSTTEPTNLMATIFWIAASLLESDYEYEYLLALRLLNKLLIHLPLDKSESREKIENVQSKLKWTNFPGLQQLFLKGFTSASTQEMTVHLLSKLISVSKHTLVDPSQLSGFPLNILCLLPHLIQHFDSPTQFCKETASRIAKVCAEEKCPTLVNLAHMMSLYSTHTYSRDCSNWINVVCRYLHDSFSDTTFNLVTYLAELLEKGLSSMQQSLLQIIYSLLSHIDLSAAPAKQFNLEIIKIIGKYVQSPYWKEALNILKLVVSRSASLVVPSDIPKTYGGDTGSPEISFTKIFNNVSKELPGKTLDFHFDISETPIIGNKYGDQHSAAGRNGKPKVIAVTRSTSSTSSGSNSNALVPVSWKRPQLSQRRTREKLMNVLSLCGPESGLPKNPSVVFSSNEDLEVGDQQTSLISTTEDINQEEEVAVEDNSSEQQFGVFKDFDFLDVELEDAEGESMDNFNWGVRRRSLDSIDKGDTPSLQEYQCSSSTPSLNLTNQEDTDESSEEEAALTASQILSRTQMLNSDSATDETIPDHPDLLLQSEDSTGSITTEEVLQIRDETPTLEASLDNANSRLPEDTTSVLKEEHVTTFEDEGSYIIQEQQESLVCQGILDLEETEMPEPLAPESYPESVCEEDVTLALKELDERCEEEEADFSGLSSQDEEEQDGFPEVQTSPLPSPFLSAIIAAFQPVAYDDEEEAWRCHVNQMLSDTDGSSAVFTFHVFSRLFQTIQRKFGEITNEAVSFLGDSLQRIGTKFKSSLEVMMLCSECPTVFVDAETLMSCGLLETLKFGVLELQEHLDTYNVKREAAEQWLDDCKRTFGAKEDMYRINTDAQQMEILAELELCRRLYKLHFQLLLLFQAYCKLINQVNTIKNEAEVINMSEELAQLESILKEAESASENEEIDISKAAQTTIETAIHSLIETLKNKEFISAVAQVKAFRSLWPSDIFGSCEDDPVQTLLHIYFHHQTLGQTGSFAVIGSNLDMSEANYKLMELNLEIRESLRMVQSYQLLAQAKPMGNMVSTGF
UniProt P55789: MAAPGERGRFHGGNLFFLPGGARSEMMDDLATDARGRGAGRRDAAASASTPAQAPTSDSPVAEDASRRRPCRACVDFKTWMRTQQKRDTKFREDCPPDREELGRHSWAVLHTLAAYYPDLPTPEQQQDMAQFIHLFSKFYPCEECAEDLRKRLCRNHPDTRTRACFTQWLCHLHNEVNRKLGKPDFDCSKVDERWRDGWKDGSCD
UniProt P30047: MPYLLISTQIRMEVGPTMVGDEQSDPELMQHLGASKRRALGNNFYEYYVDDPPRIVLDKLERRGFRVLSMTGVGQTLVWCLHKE
UniProt P34059: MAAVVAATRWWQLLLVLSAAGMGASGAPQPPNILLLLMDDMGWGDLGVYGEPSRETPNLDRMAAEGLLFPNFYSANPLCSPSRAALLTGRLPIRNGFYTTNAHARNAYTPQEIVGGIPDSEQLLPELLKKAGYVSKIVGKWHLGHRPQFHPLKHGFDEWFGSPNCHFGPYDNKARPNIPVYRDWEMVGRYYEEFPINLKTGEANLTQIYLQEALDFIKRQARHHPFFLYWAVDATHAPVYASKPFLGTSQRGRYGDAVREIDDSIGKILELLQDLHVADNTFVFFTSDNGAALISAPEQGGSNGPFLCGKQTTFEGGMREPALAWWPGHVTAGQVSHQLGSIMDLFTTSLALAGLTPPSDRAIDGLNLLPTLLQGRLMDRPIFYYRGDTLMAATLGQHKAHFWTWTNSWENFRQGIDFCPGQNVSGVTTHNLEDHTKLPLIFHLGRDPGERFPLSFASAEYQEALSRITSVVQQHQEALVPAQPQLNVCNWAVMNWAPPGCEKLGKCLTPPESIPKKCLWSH
UniProt Q01415: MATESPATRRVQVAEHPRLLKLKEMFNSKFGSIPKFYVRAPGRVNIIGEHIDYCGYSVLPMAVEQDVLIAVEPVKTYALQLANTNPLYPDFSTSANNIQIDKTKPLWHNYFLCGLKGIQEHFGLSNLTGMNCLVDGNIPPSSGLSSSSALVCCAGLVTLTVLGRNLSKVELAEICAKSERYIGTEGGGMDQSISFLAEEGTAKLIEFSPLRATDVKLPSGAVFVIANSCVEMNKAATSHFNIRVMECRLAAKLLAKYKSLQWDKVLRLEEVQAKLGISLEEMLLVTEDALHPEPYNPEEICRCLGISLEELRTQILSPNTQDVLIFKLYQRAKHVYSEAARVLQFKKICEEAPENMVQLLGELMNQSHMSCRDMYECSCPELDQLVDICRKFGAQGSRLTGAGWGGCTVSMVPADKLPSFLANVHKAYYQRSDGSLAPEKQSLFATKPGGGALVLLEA

Tests used:
Assay in all cases: log2 fold change, soluble protein after heating vs DMSO (PISA); higher = thermal stabilisation; K562 cells, 10 uM, 30 min; active = over 0.2 and 3.5 SD of the protein, either way, in both replicates (recomputed)
[1] = compound: CN1CCN(CCOc2cc(OC3CCOCC3)c3c(Nc4c(Cl)ccc5c4OCO5)ncnc3c2)CC1 [saracatinib]
How it was run: (§1)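 Aliquots of K562 cells (2×10^6 cells/mL) treated with 10 μM compound for 30 min were heated for 3 min over 48°C-58°C. After pooling and extraction in PBS with 0.5% NP-40 at 4°C, soluble protein from a 21,000xg, 90 min spin was quantified by TMTpro 16plex LC-MS/MS with channel sums equalised. Thermal stability is expressed against control samples, from duplicates, as a log2 fold change.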

[2] = compound: CN1CCN(c2nc(C3=C(c4c[nH]c5ccccc45)C(=O)NC3=O)c3ccccc3n2)CC1 [sotrastaurin]
How it was run: as §1

[3] = compound: CN1CC[C@H](c2c(O)cc(O)c3c(=O)cc(-c4ccccc4Cl)oc23)[C@H](O)C1 [alvocidib]
How it was run: as §1

[4] = compound: CN1CCc2c(c3ccccc3n2Cc2ccc(C(=O)NO)cc2)C1 [Tubastatin A]
How it was run: as §1

[5] = compound: CNC(=O)C1=CC=CC=C1NC2=NC(=NC=C2Cl)NC3=C(C=C(C=C3)N4CCOCC4)OC
How it was run: as §1

[6] = compound: CNC(=O)c1ccc(Nc2ncc(C(F)(F)F)c(NCc3nccnc3N(C)S(C)(=O)=O)n2)cc1 [defactinib]
How it was run: as §1

[7] = compound: CNCc1ccc(-c2[nH]c3cc(F)cc4c3c2CCNC4=O)cc1 [rucaparib]
How it was run: as §1

[8] = compound: CNc1nc(-c2ccc3c(N)n[nH]c3c2)cc(N2C[C@@H](C(=O)NC3CCCCC3)CC[C@H]2C)n1
How it was run: as §1

[9] = compound: COC(=O)N[C@@H](C)CNc1nccc(-c2cn(C(C)C)nc2-c2cc(Cl)cc(NS(C)(=O)=O)c2F)n1 [encorafenib]
How it was run: as §1

[10] = compound: COC(=O)[C@H](CCSC)NC(=O)C1=C(C=C(C=C1)NC[C@H](CS)N)C2=CC=CC=C2
How it was run: as §1

Measured: log2 fold change

GAGE5 (UniProt Q13069)
inactive: [1] -0.031 | [2] 0.088 | [3] -0.001 | [4] 0.028 | [5] -0.096 | [6] 0.031 | [7] 0.002 | [8] 0.012 | [9] -0.029 | [10] 0.002

GGT2 isoform 3 (UniProt P36268)
inactive: [1] 0.006 | [2] 0.07 | [3] 0.032 | [4] -0.242 | [5] -0.006 | [6] 0.02 | [7] -0.008 | [8] 0.023 | [9] -0.002 | [10] 0.023

FTSJ1 (UniProt Q9UET6)
inactive: [1] -0.035 | [2] 0.205 | [3] -0.046 | [4] 0.003 | [5] -0.078 | [6] -0.012 | [7] 0.037 | [8] 0.059 | [9] -0.034 | [10] -0.053

GCFC2 (UniProt P16383)
inactive: [1] 0.138 | [2] 0.118 | [3] -0.142 | [4] 0.005 | [5] -0.059 | [6] -0.1 | [7] 0.021 | [8] -0.059 | [9] -0.057 | [10] -0.041

GAR1 (UniProt Q9NY12)
inactive: [1] -0.102 | [2] 0.036 | [3] 0.213 | [4] 0.055 | [5] -0.02 | [6] 0.304 | [7] 0.305 | [8] 0.055 | [9] 0.121 | [10] 0.018

GET4 (UniProt Q7L5D6)
inactive: [1] 0.007 | [2] 0.009 | [3] -0.01 | [4] 0.013 | [5] 0.041 | [6] -0.061 | [7] 0.08 | [8] 0.008 | [9] 0.043 | [10] -0.044

FTL (UniProt P02792)
inactive: [1] -0.195 | [2] 0.022 | [3] -0.01 | [4] -0.164 | [5] 0.066 | [6] 0.019 | [7] 0.061 | [8] -0.216 | [9] 0.075 | [10] 0.074

GGPS1 (UniProt O95749)
inactive: [1] 0.024 | [2] 0.06 | [3] -0.014 | [4] -0.031 | [5] -0.026 | [6] -0.001 | [7] -0.098 | [8] -0.054 | [9] 0.011 | [10] 0.041

FXR1 (UniProt P51114)
inactive: [1] -0.103 | [2] -0.148 | [3] 0.204 | [4] 0.036 | [5] -0.082 | [6] 0.135 | [7] 0.463 | [8] 0.084 | [9] 0.164 | [10] -0.035

GARS1 (UniProt P41250)
inactive: [1] 0.024 | [2] 0.055 | [3] 0.007 | [4] -0.016 | [5] -0.006 | [6] 0.005 | [7] -0.066 | [8] -0.028 | [9] -0.011 | [10] 0.011

G3BP1 (UniProt Q13283)
inactive: [1] -0.011 | [2] 0.086 | [3] 0.137 | [4] 0.055 | [5] 0.101 | [6] 0.161 | [7] 0.258 | [8] 0.02 | [9] 0.052 | [10] 0.038

GGH (UniProt Q92820)
inactive: [1] -0.027 | [2] 0.052 | [3] 0.038 | [4] -0.001 | [5] -0.005 | [6] -0.055 | [7] 0.007 | [8] -0.024 | [9] -0.016 | [10] 0.014

GFM1 (UniProt Q96RP9)
inactive: [1] -0.035 | [2] -0.037 | [3] -0.144 | [4] 0.053 | [5] 0.021 | [6] -0.081 | [7] 0.009 | [8] 0.054 | [9] -0.01 | [10] -0.062

FXR2 (UniProt P51116)
inactive: [1] -0.179 | [2] -0.011 | [3] 0.152 | [4] -0.05 | [5] -0.064 | [6] 0.289 | [7] 0.169 | [8] 0.149 | [9] 0.131 | [10] -0.064

GHITM (UniProt Q9H3K2)
inactive: [1] 0.081 | [2] 0.019 | [3] 0 | [4] 0.001 | [5] 0.002 | [6] 0.008 | [7] -0.021 | [8] -0.031 | [9] -0.005 | [10] 0.007

GGCX (UniProt P38435)
inactive: [1] -0.113 | [2] -0.024 | [3] -0.011 | [4] 0.07 | [5] -0.025 | [6] 0.015 | [7] 0.057 | [8] 0.028 | [9] -0.112 | [10] -0.027

FUBP1 isoform 2 (UniProt Q96AE4)
inactive: [1] 0.036 | [2] 0.049 | [3] 0.006 | [4] -0.018 | [5] 0.026 | [6] 0.014 | [7] -0.03 | [8] -0.046 | [9] -0.023 | [10] 0.003

GATAD2A isoform 3 (UniProt Q86YP4)
inactive: [1] -0.045 | [2] -0.162 | [3] -0.221 | [4] 0.001 | [5] -0.035 | [6] -0.227 | [7] 0.117 | [8] 0.006 | [9] 0.179 | [10] -0.033

GAMT (UniProt Q14353)
inactive: [1] -0.017 | [2] -0.091 | [3] -0.032 | [4] 0.037 | [5] 0 | [6] -0.115 | [7] 0.067 | [8] 0.016 | [9] -0.042 | [10] -0.005

GALNT7 (UniProt Q86SF2)
inactive: [1] 0.026 | [2] -0.099 | [3] -0.075 | [4] 0.003 | [5] -0.033 | [6] -0.018 | [7] -0.018 | [8] -0.001 | [9] 0.021 | [10] -0.012

FRG1 (UniProt Q14331)
inactive: [1] -0.053 | [2] -0.017 | [3] 0.202 | [4] -0.008 | [5] -0.01 | [6] 0.119 | [7] 0.145 | [8] 0.043 | [9] 0.011 | [10] 0.026

FRYL (UniProt O94915)
inactive: [1] -0.011 | [2] -0.04 | [3] -0.019 | [4] 0.049 | [5] -0.005 | [6] -0.001 | [7] 0.018 | [8] -0.005 | [9] 0.083 | [10] 0.003

FTO (UniProt Q9C0B1)
inactive: [1] 0.012 | [2] 0.039 | [3] -0.018 | [4] -0.014 | [5] 0.037 | [6] -0.031 | [7] -0.033 | [8] -0.005 | [9] -0.005 | [10] 0.039

Quoted from above (two entries):
GGH (UniProt Q92820)
inactive: [1] -0.027 | [2] 0.052 | [3] 0.038 | [4] -0.001 | [5] -0.005 | [6] -0.055 | [7] 0.007 | [8] -0.024 | [9] -0.016 | [10] 0.014

GFM1 (UniProt Q96RP9)
inactive: [1] -0.035 | [2] -0.037 | [3] -0.144 | [4] 0.053 | [5] 0.021 | [6] -0.081 | [7] 0.009 | [8] 0.054 | [9] -0.01 | [10] -0.062

(cont.)

GFER (UniProt P55789)
inactive: [1] 0.113 | [2] 0.041 | [3] -0.04 | [4] -0.063 | [5] -0.166 | [6] -0.054 | [7] 0.129 | [8] 0.014 | [9] -0.104 | [10] 0.088

GCHFR (UniProt P30047)
inactive: [1] -0.075 | [2] 0.027 | [3] -0.027 | [4] -0.002 | [5] -0.016 | [6] -0.09 | [7] -0.129 | [8] -0.08 | [9] -0.042 | [10] 0.1

GALNS (UniProt P34059)
inactive: [1] 0.031 | [2] 0.012 | [3] 0.017 | [4] 0.008 | [5] 0.014 | [6] 0.012 | [7] 0.005 | [8] 0.019 | [9] 0.061 | [10] 0.087

FXN (UniProt Q16595)
inactive: [1] -0.078 | [2] -0.024 | [3] -0.023 | [4] 0.018 | [5] 0.062 | [6] -0.078 | [7] 0.078 | [8] 0.029 | [9] -0.037 | [10] -0.113

GALK2 (UniProt Q01415)
inactive: [1] 0.005 | [2] 0.017 | [3] -0.006 | [4] -0.054 | [5] -0.031 | [6] 0.021 | [7] -0.066 | [8] -0.054 | [9] -0.002 | [10] -0.002

GDI2 (UniProt P50395)
inactive: [1] -0.007 | [2] 0.009 | [3] -0.062 | [4] -0.005 | [5] 0.2 | [6] 0.004 | [7] -0.065 | [8] 0.005 | [9] -0.005 | [10] 0.021
